Results are given in words; binding and its absence hold for the method and conditions named. Binding calls can cover weak binding; strength is not graded here.

This assay concerns the target Pseudomonas aeruginosa FtsW (Pseudomonas aeruginosa) (UniProt Q9HW00). The assay is described as follows: cryo-EM structure.

Regarding “Pseudomonas aeruginosa FtsI (from UniProt G3XD46 1-579) (enzyme)”, the binding result is “binds”.
